Among the data in paper PMC5058708 are binding values, retold here.

The chains behind the UniProt entries cited, without tags or fusion partners. Where a name states a change or a piece, a line headed by the entry shows the natural chain unless it says otherwise.
UniProt Q07936: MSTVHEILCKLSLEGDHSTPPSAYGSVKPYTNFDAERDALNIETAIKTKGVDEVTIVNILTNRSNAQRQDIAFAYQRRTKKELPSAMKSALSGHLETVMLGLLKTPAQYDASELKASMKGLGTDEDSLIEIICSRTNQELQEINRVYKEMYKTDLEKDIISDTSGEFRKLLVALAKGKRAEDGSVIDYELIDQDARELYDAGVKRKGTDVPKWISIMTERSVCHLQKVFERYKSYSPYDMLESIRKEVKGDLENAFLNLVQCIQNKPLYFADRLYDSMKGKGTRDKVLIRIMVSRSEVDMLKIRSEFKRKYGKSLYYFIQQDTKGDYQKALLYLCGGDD
UniProt P24268: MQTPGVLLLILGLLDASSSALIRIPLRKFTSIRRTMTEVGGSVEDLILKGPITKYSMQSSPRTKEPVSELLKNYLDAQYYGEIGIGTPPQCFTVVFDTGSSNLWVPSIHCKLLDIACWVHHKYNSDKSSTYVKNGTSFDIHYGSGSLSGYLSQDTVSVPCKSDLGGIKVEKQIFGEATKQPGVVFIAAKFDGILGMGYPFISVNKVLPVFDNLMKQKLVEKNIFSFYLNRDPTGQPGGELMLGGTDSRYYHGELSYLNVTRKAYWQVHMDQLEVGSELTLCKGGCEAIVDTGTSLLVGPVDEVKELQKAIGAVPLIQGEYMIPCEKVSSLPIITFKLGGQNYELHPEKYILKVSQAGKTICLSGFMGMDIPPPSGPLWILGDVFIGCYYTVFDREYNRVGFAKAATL
UniProt P18266: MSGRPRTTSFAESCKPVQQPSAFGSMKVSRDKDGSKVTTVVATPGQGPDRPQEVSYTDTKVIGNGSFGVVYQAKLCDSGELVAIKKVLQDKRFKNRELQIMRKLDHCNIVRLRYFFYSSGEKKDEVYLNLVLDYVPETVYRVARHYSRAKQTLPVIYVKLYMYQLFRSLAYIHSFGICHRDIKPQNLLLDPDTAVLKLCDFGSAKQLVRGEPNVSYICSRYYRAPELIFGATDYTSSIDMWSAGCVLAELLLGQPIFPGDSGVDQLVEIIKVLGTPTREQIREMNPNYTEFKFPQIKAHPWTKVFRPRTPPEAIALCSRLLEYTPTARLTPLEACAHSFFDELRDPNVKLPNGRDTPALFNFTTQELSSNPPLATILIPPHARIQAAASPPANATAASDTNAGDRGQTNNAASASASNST
UniProt A0ACM8Q1Z9: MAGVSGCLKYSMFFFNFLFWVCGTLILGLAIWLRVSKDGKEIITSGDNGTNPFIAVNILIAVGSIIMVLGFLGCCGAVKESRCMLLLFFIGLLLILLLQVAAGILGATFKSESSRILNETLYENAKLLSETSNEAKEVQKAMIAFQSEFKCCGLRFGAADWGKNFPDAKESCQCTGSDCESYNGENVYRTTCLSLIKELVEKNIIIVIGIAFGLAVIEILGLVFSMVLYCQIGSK

Read-outs that look alike come from different tables or passages of the source. No constants are given. Whether binding was seen depends on the method and setting. In cells and extracts the contact can be indirect. For some of these results: Binding can be weak; no strength is given.

Assay in all cases: co-IP; lysates of wt, kd and rescue ASML clones; HEPES buffer, 1% Lubrol, 30 min at 4°C; antibody 1 h at 4°C, ProteinG-Sepharose 1 h; SDS-PAGE and Western blot
For orientation: In western blotting, separated proteins are transferred to a membrane and probed.

The target of test [1] is T1, claudin7 (rat (endogenous in ASML)) (UniProt Q9Z1L1).
T1 sequence (chain, palmitoylated (palmitoylation is prevented by mutating AA184 and AA186)): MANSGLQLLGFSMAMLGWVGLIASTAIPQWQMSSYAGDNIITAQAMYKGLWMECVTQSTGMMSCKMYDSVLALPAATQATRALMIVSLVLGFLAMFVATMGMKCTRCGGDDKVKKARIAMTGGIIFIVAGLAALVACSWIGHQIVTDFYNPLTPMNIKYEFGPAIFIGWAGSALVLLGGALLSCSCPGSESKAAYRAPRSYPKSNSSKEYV

The target in test [2] is AnnII (rat (endogenous in ASML)) (UniProt Q07936).
The target of test [3] is CathepsinD (rat (endogenous in ASML)) (UniProt P24268).
Test [4] has as its target GSK3β (rat (endogenous in ASML)) (UniProt P18266).
Test [5] addresses T2, Lamp1 (rat (endogenous in ASML)) (UniProt P14562).
T2 sequence: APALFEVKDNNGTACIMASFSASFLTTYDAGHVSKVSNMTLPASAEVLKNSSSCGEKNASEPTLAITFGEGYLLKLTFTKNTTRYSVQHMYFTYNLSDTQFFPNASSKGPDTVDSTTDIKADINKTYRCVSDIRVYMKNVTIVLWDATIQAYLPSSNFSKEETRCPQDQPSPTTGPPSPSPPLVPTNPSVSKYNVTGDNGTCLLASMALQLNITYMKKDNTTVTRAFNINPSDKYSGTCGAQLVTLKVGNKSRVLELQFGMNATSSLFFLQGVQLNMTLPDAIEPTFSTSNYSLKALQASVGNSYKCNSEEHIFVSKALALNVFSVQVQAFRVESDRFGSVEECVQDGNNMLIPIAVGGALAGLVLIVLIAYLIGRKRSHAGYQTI

In test [6] the target is EpC with a AG point mutation (UniProt O55159).
Test [7] addresses T3, EpCAM (rat (endogenous in ASML)) (UniProt O55159).
T3 sequence: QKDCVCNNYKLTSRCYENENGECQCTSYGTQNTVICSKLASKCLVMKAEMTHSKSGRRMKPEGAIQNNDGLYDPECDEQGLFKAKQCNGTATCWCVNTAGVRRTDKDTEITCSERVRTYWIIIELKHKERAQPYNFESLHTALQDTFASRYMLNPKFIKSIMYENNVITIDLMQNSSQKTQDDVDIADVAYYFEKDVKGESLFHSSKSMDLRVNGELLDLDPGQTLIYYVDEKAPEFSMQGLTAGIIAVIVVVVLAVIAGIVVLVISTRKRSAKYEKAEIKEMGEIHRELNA

Test [8] has as its target CathepsinD (rat (endogenous in ASML)) (UniProt P24268). This is another data set of the same source.
Test [9] concerns the target EpC with a AG point mutation (UniProt O55159). The source holds these as a separate data set.
The target in test [10] is dynamin (rat (endogenous in ASML)).
For test [11], the target named is rab5 (rat (endogenous in ASML)).
The target in test [12] is rab7 (rat (endogenous in ASML)).

For Nanog (rat (endogenous in ASML)), the binding result in test [1] is on record as “no binding”.

For the molecule Snail (rat (endogenous in ASML)), the binding result in [1] is recorded as “no binding”.

“cld7 with a mutation in the palmitoylation site (from UniProt Q9Z1L1)”: the binding entry in test [2], in test [3], in test [4] and in test [5] was “binds” in each case.

On to “tetraspanin Tspan8 (from UniProt A0ACM8Q1Z9)”, for which the binding result in test [6] and in [7] was “binds” throughout.

B1: claudin7 (protein, UniProt Q9Z1L1 1-211)
chain: MANSGLQLLGFSMAMLGWVGLIASTAIPQWQMSSYAGDNIITAQAMYKGLWMECVTQSTGMMSCKMYDSVLALPAATQATRALMIVSLVLGFLAMFVATMGMKCTRCGGDDKVKKARIAMTGGIIFIVAGLAALVACSWIGHQIVTDFYNPLTPMNIKYEFGPAIFIGWAGSALVLLGGALLSCSCPGSESKAAYRAPRSYPKSNSSKEYV
modifications: palmitoylated (palmitoylation is prevented by mutating AA184 and AA186)
Take B1: the binding result in test [8] is recorded as “binds”; in [9], “no binding”; in [10], “binds”; in test [11], “binds”; in test [12], “binds”.
